From article PMC3184153 come the findings set out here.

Sequences of proteins named here, by UniProt entry; tags and fusion partners are left off. A change or cut given only in a name is not applied to a line headed by its entry.
UniProt Q7AKN0: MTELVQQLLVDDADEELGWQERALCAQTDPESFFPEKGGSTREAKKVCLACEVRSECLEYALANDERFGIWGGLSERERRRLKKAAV

The data set addresses apo-WhiB (Streptomyces coelicolor) (UniProt Q7AKN0). Nature of the data set: EMSA. The conditions noted are these: apo form (no Fe-S cluster), 0-9 uM WhiB, 20 ng DNA; Invitrogen fluorescence EMSA kit, BSA as non-specific competitor, room temperature 30 min, 6% polyacrylamide gel in 0.5x TBE; protein stock in 50 mM Tris, 100 mM NaCl; recombinant protein; residues 1-87; protein details: His6 (pET15b, pIJ6999); probe letters rebuilt from the primers and the genome. (In general: In EMSA bound probe runs differently from free probe, usually more slowly.)

For at least one entry, the source does not settle the construct or the ends of the probe.

For “TAGATATCCCATGCTCGGTGAGACCGACGACGAGGGCCGTCCGGTCGCGTACAACCGCGTCGCCGGTGTCCTGGTCACCGGGAACGAGGACGGTGCCCACCACGTCATCAGCGAGATCGGCGGCGGCCTCGCGGACATCGGCTACACCATTCCCGGCCAGGCCTGGACCTACTGGCACCTCGGCCCGGGACCCGGTCCGGACTTCCTCGACGACGAGCGCGGCCACGACTGGTCGGTCTCCACCGGCCGCGCCATGGCGTCCAATCTGGTGCACGCGGCGCGCGCCCTCGACGCGATGCCGCTCCCGGCCCCGCCGTCCTGATCCCGGACCTGCCCGCGCATGTCTGCCTGAGCCGATACGGGGCATTCGTGCACGAGCAATGACGTACGAAACGCATGAGGAGCTGAGGTCCCATATGTA (double strand) [dpsA promoter region]”, the binding result is on record as “binds”.
